Experimental data published in PMC12462935, “TRIM21‐Mediated K11‐Linked Ubiquitination of ID1 Suppresses Tumorigenesis and Promotes Cuproptosis in Esophageal Squamous Cell Carcinoma” (Advanced Science, 2025).

Target: T1, Myc-ID1 (UniProt P41134)
T1 sequence: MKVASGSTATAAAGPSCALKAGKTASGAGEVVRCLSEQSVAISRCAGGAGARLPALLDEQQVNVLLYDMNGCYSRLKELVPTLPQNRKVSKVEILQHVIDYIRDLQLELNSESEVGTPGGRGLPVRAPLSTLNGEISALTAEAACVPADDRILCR
Assay: co-IP; truncated constructs of ID1 (pEBG-GST) tested with TRIM21 and truncated constructs of TRIM21 (pcDNA3) tested with ID1; cells not given

| binding | Substance |
| --- | --- |
| no binding | TRIM21#1 (zinc finger domain) (domain or fragment) |
| no binding | TRIM21#2 (coiled-coil domain) (domain or fragment) |

Results are given in words; binding and its absence hold for the method and conditions named. In cells and extracts the contact can be indirect. Tags and fused reporters may be left off the sequences shown.
